# Primary screen of a compound library

Sequences of proteins named here, by UniProt entry; tags and fusion partners are left off. Residues count along the entry.
UniProt Q8IDJ8, 1-583: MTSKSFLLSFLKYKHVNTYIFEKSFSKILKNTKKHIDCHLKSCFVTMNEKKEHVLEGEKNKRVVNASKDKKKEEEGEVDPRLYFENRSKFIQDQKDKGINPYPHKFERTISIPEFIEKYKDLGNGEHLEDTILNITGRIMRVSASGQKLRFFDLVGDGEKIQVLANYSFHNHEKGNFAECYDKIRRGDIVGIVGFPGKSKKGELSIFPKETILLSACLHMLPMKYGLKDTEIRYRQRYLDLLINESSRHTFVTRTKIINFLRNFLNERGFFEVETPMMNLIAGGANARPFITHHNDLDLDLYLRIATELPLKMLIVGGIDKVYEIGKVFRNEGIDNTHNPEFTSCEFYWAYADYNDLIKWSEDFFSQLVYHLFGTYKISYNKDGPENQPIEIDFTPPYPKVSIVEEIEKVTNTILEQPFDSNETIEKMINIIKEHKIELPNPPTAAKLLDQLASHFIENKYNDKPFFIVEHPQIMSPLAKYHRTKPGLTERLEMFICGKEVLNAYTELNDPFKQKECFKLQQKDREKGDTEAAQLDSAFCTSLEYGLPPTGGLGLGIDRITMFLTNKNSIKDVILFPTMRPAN
UniProt Q4DA54, 1-478: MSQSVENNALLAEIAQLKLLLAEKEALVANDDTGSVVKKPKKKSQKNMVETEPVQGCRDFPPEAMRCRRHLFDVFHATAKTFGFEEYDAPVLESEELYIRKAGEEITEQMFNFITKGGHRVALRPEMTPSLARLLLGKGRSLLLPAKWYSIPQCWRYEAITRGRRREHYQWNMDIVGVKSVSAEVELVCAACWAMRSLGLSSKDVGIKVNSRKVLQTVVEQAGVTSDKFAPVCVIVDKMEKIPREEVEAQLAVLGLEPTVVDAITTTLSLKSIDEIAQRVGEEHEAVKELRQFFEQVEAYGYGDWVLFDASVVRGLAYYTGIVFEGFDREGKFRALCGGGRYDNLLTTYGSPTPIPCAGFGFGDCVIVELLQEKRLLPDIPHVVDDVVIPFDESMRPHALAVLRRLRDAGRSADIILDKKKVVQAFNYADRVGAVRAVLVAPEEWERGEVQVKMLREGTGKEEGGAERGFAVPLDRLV
UniProt I6X8D2, whole entry: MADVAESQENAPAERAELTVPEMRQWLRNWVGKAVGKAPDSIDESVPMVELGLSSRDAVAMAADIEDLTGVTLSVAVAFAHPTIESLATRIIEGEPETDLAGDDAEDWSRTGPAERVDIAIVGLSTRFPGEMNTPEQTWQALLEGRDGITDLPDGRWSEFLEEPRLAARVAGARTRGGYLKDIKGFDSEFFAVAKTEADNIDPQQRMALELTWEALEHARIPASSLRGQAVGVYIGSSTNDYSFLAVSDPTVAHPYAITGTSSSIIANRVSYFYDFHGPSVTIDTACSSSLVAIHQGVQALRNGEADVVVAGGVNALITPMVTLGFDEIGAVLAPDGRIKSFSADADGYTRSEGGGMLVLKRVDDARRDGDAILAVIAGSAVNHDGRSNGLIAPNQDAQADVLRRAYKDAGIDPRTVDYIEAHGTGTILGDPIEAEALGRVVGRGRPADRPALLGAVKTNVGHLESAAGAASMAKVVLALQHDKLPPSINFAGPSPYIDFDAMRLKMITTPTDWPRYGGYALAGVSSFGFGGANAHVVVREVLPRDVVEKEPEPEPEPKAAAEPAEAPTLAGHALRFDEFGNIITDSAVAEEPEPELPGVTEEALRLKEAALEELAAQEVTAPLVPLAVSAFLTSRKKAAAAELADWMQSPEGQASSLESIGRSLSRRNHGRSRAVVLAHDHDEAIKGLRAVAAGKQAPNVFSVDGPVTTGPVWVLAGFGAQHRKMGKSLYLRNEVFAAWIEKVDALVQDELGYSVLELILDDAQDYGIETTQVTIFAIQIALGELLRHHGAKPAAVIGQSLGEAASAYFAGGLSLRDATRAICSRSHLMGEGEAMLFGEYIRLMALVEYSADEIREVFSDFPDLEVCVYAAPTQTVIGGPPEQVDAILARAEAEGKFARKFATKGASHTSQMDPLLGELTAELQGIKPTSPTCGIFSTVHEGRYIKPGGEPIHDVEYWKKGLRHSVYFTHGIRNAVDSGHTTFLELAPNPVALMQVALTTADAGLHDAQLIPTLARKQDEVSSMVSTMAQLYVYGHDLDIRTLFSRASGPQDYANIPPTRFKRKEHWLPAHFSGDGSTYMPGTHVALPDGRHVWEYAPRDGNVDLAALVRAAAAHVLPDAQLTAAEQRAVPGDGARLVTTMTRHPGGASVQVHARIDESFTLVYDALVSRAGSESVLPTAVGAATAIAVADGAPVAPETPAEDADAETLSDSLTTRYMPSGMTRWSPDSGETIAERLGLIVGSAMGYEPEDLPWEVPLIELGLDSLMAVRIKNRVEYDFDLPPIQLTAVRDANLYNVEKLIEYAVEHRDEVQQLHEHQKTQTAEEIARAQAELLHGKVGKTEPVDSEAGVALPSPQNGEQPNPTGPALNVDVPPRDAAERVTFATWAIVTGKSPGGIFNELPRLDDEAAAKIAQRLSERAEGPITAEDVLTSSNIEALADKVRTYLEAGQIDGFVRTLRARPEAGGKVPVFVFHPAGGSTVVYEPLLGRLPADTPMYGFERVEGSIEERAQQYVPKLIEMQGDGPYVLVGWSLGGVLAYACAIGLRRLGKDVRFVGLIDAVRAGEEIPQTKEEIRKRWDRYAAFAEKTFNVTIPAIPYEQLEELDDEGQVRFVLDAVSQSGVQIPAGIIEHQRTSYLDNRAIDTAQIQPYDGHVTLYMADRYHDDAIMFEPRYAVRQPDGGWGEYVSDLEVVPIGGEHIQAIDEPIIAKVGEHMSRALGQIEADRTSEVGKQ

A: 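Enzyme assay of the cytosolic lysyl-tRNA synthetase in 384-well plates, read by luminescence. Target: Lysine-tRNA ligase, Plasmodium falciparum 3D7 (UniProt Q8IDJ8). Concentration: 30 µM. Direction is inferred from only a few compounds that gave an IC50; most scored high, so higher reads as stronger inhibition. About 69,000 compounds were tested under these conditions; 0.071% (about 49) showed 50% or more at least once.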
B: 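Enzyme assay of histidyl-tRNA synthetase; the read-out is not stated. Target: Histidine-tRNA ligase, Trypanosoma cruzi CL Brener (UniProt Q4DA54). Concentration: 30 µM. The record gives no direction; compounds that gave an IC50 in retests scored well above the rest, so higher reads as stronger inhibition. About 69,000 compounds were tested under these conditions; 0.045% (about 31) showed 50% or more at least once.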
C: 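Cell assay of Leishmania donovani living inside macrophages; the read-out is not stated. Concentration: 30 µM. Higher reads as stronger inhibition (inferred: compounds with an IC50 in retests scored well above the rest). About 69,000 compounds were tested under these conditions; 1.5% (about 1,000) showed 50% or more at least once.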
D: 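Polyketide synthase Pks13, Mycobacterium tuberculosis (UniProt I6X8D2). Enzyme assay of the thioesterase domain of polyketide synthase 13; the read-out is not stated. Compounds at 30 µM. Higher reads as stronger inhibition (inferred from which compounds were picked for retests). Size under these conditions: about 67,000 compounds, about 300 of them at 50% or above in at least one test.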

The filed quantity is “Percent Effect” (%). The record does not define 0% and 100%; most values in the screen are far below 50% and negative numbers occur (in some assays of this library far below -100). The compounds are a random part of those screened. A dash means the value is not listed here; it may have been measured.

Compound | A | B | C | D
O=C(O)c1ccnc(-c2ccnc(COc3ccccc3Cl)n2)c1 | 8.104% | 1.961% | 7.422% | -6.727%
CCN(CC)Cc1nc2c(o1)CN(C(=O)c1ccc3[nH]ccc3c1)C2 | 4.238% | 12.3% | - | -32.02%
Cc1cc(N2CCC(CO)(CC3CCCCO3)CC2)nc2ccccc12 (stereo not shown) | 2.483% | -5.797% | -19.68% | 10.32%
O=c1c(S(=O)(=O)N2CCCC2)cccn1Cc1ccc(F)cc1Cl | 4.391% | 2.591% | -18.13% | 28.65%
Cc1nc(CO[C@@H]2CC[C@H]3[C@H]2OCCN3Cc2cccnc2)cs1 | 1.566% | 5.6% | - | -3.745%
CCOCCN1CCN(CC(O)c2cc(Cl)ccc2Cl)CC1 (stereo not shown) | 0.3329% | 4.972% | 19.89% | -21.07%
Cc1ccn(CCNc2ncnc3c2CCN(c2cnccn2)CC3)n1 | 9.698% | -2.02% | 33.08% | -0.4111%
O=C(O)C(F)(F)F.[H][C@@]12CN(Cc3sccc3C)C[C@H](C(=O)NCCOC)[C@]1([H])CCO2 | - | - | 16.54% | -
Cc1cc(C2CCCN(C(=O)COc3ccccc3F)C2)n[nH]1 (stereo not shown) | -7.045% | 8.081% | -30.16% | 23.28%
Cn1c(CS(=O)(=O)Cc2ccc(Cl)cc2)cc(=O)n(C)c1=O | 0.7018% | 9.091% | 23.93% | -11.72%
NCC1CN(C(=O)Cn2ncc(N3CCCCC3)cc2=O)CCO1 (stereo not shown) | 3.816% | 0.431% | 0.03471% | -21.87%
N#Cc1ccccc1N1CCCN(C(=O)CCc2ccsc2)CC1 | -0.1687% | 1.153% | -26.83% | 4.916%
COCCN1CCN(Cc2ccncc2)c2ncccc2C1 | 1.985% | 3.061% | - | 10.23%
CN(CC(=O)NC(C)(C)C)Cc1nc(-c2ccccc2)c[nH]1 | -4.92% | 0% | -7.172% | -34.07%
CCc1nc(CN2CCCN(CC(O)c3ccccc3)CC2)no1 (stereo not shown) | 1.689% | 9.577% | 28.58% | -20.47%
CC(C)c1cc(C(=O)N2CCCC3(CCNC3)C2)no1 (stereo not shown) | 2.32% | 7.212% | 18.87% | -6.867%
COc1cc(N2CCC(c3nccn3Cc3ccccn3)CC2)ncn1 | 4.492% | 1.093% | -57.9% | -24.06%
COCCC1(CO)CCCN(C(=O)c2cccnc2O)C1 (stereo not shown) | -3.313% | 0% | 15.89% | -26.49%
CN(C)C1CC2(CCN(C(=O)C3(C#N)CC3)CC2)c2ccccc21.O=C(O)C(F)(F)F (stereo not shown) | - | - | 4.717% | -
CN1CCC2(CCN(C(=O)c3cccnc3)C2)C1 (stereo not shown) | 4.049% | 7.407% | 47.81% | -10.87%
CO[C@@H]1CCN(Cc2c(C)noc2C)[C@@H]2CN(Cc3ccco3)C[C@@H]21 | 3.381% | 2.222% | - | -3.269%
COCCn1ccc2c(C(=O)Nc3nc4c(s3)CCC4)cccc21 | 4.008% | 11.88% | -15.47% | -27.6%
O=C(C[C@@H]1COC[C@H]2CN(CC3CCOCC3)C[C@@H]12)N1CCCCO1 | 0.04563% | 1.149% | - | -23.11%
CC(C)N1CCC(Cc2cnc(-c3cccc(C(=O)O)c3)cn2)C1 (stereo not shown) | 1.056% | -0.5405% | 21.81% | -25.87%
Cn1nccc1C1CCN(CC(O)c2cccc(F)c2)CC1 (stereo not shown) | 1.031% | 3.759% | -5.527% | -29.16%
CCCN(C)S(=O)(=O)N1CCCC1c1ccco1 (stereo not shown) | -0.2681% | 7.289% | 31.3% | -5.147%
c1c(CN2CCCC2)nc2n1CCN(CC1CC1)C2 | 2.214% | 9.783% | - | -21.57%
CC(NC(=O)NCC(F)(F)F)c1nncn1C (stereo not shown) | -5.174% | -2.632% | -10.02% | -23.95%
CCOC(=O)[C@H]1[C@@H](O)C(=O)N(C)C12CCN(S(=O)(=O)CC)CC2 | 3.522% | 4.624% | 1.272% | 14.12%
c1cncc(C2COC3(CCN(Cc4nccs4)CC3)C2)c1 (stereo not shown) | 1.158% | 4.673% | - | -8.344%
CNC(=O)CN1CCC2(CCCN(CC3CCOC3)C2)CC1 (stereo not shown) | 0.4017% | 8.466% | - | -7.342%
CCCc1nnc(NC(C)c2ccc3c(c2)OCCO3)o1 (stereo not shown) | 1.864% | 0% | -5.813% | 11.03%
Cc1nc(N(CCC(N)=O)Cc2ccccc2)c2nc(C)oc2n1 | -3.509% | 3.191% | 14.69% | -
CCC(=O)N1CCC2(CC1)C(=O)N(C)CCN2Cc1csc(C)n1.O=C(O)C(F)(F)F | - | - | 39.08% | -

Once more, the final 2:

Compound,A,B,C,D
Cc1nc(N(CCC(N)=O)Cc2ccccc2)c2nc(C)oc2n1,-3.509%,3.191%,14.69%,-
CCC(=O)N1CCC2(CC1)C(=O)N(C)CCN2Cc1csc(C)n1.O=C(O)C(F)(F)F,-,-,39.08%,-

Source: ChEMBL document CHEMBL3988442, “University of Dundee, Small-Polar-MMV Screening Library” (2021).